Measurements taken from the supplement of paper PMC5949888.
Most values lie at the floor of the assay. Slopes are relative: functional sequences can read slightly below zero.

system: Saccharomyces cerevisiae PS128 hsf1 delta, HSF1(1-493) fusion; assay: growth estimate (transactivation domain function in HSF1 fusion, heat-shock survival) (a.u. (slope of normalised read count over time)); higher = stronger growth at 37°C, i.e. more transactivation activity; details: library: random library
Protocol: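 Random 60-nt DNA library encoding peptides of up to 20 aa, fused to the C-terminus of yeast HSF1 residues 1-493 (C-terminal TAD deleted) and expressed from the native HSF1 promoter on a CEN plasmid in hsf1-deleted S. cerevisiae PS128. Cells were selected at 37°C on -trp 5-FOA plates for 0, 2, 4, 6 and 8 days and amplicons were sequenced. Growth estimate is the slope of a robust linear fit of total-sum-normalised read counts (normalised to the first time point) over time, using at least 2 replicates. Sequences are classed functional (TAD activity) above a threshold of -0.13, set from stop-codon control sequences.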

Row | Substance | growth estimate
1 | LAFGPVGVKRWPRLPREVGP | < -0.25
2 | VQNRKRHL | < -0.25
3 | PSPEEMNVPY | < -0.25
4 | WKAGSRHGSLTRGSLFL | < -0.25
5 | ACEVKIPQWNFCPASEQVKP | < -0.25
6 | IDLLSGSLNQLEKLARGQGD | < -0.25
7 | VRDAFSRCLRTLAPVSRW | < -0.25
8 | VVLALIARPYVSSVQPVVP | < -0.25
9 | CMVLFECELPSL | < -0.25
10 | GLRREAASHFVRVVRRTN | < -0.25
11 | SSPFLAKAPCYGVR | < -0.25
12 | VQGIICIS | < -0.25
13 | STKATMPGRTQRIGVRLDSH | < -0.25
14 | QVSTSEIDGSLRPTPWGKLE | < -0.25
15 | IVITCAAGGTRRRVYEVLEE | < -0.25
16 | SVTDHGYSASHAYWAIELGW | < -0.25
17 | FWKEVV | -0.246
18 | VHVTFVN | < -0.25
19 | KPCVVEA | < -0.25
20 | TQGNLGYLSKRKRPRSVYSG | < -0.25
21 | LAETSMLFAVVGARGACASD | < -0.25
22 | LLIVWPGASAS | < -0.25
23 | CSIPWGVRGYVQPMDSGFDG | 0.066
24 | VRA | < -0.25

Row | Substance | growth estimate
25 | RLLGSTACGLDKGATQFRAM | < -0.25
26 | GGRAGQGTGNAGGSAHCCAA | < -0.25
27 | YFPSGGVIGPDYHVCRLIVS | < -0.25
28 | IDLYICVEGRQGEGS | < -0.25
29 | VRPER | < -0.25
30 | LSLGFAFKDRGNR | < -0.25
31 | IGSESWDACRCASL | < -0.25
32 | TLILWLRSVKW | < -0.25
33 | SRSATTRQSDR | < -0.25
34 | VTH | -0.231
35 | NCHKIRHRGINMHRAGQVV | < -0.25
36 | NVTEGDLLRKCRGNCAFSKA | < -0.25
37 | SRPGSRVYRI | < -0.25
38 | NRYLEM | < -0.25
39 | TEKQELQVVVVAWCG | < -0.25
40 | SCNW | < -0.25
41 | HLVQGHRSHDRSVWLWLRSS | < -0.25
42 | AASSLRLIDRIVTGARSASP | < -0.25
43 | STDGCRRINLRMSKMRLSSV | < -0.25
44 | VLLCTLTCVHALRGPLPHQQ | < -0.25
45 | NDYFRAGWLSCATM | < -0.25
46 | GTAFERDLSKQLLDCQVGVL | < -0.25
47 | RSRSTRKCLSPCANLGRSHD | < -0.25
48 | PKRTSDSLESGVQ | < -0.25

Row | Substance | growth estimate
49 | SVYCH | < -0.25
50 | LRLTASRGGCR | < -0.25
51 | REPCTEL | < -0.25
52 | RISGKG | < -0.25
53 | RDGNAESGR | < -0.25
54 | RVHKSREGRINRILDCPQDA | < -0.25
55 | SLGKHATRGVGIIRGLPCTM | < -0.25
56 | GVLGYVTSKST | < -0.25
57 | VQDEYHRTLQLYASSAL | < -0.25
58 | TGYMPG | < -0.25
59 | TDYVFNISITP | < -0.25
60 | SCCLCWAIPLGGRLLGSIAP | < -0.25
61 | ELRNLAGSDKLRCVHTPVDA | < -0.25
62 | RRAKARPCGRGIWRPTTRFH | < -0.25
63 | KVLRKARRVVGETKPRL | < -0.25
64 | ISDIGAGIAVLHVGYRHVGK | < -0.25
65 | WLGIGWLHAIGYAGVGSVVS | < -0.25
66 | YGRLLGFGRREITAKCRDRR | < -0.25
67 | RVPENCSIAVNEASSRLDVE | < -0.25
68 | ERRGSVGLIGSPGNTAAYDL | < -0.25
69 | VLISFCDGSRVS | < -0.25
70 | VKMRPLCPEYV | < -0.25
71 | ASWK | < -0.25
72 | CLFSNWLVKK | < -0.25

Row | Substance | growth estimate
73 | NQKSWGQSSVEITGDPPTAY | < -0.25
74 | DRVSTHACVSTT | < -0.25
75 | RSIR | < -0.25
76 | WVRCARLFGSAKGFSSGPWR | < -0.25
77 | NGVSKRGEHR | < -0.25
78 | ERAITRLESVVSVEMWLCWK | < -0.25
79 | LHRFETHYSAVRSRVSGMAS | < -0.25
80 | AITRLPTASSGL | < -0.25
81 | FFGNAPSARLY | < -0.25
82 | WWRVLL | < -0.25
83 | ATAIWNC | < -0.25
84 | RRGCSLLLALFSVVD | < -0.25
85 | SRLRGPGCSCMKDTMAQTLL | < -0.25
86 | IPAPRQS | < -0.25
87 | GAILQNIKPCTANES | < -0.25
88 | NLLRSDFVIRAVT | < -0.25
89 | HCDPPKVCVVLRLAPILLRS | -0.218
90 | KCKTLHCGSQHRFRHGEAPS | < -0.25
91 | VTRMHGSPLLPEVNCEEFRT | < -0.25
92 | IMRDECYN | < -0.25
93 | AGCVGGKPAESTRFGCNSAQ | < -0.25
94 | HHTMGMSEGWGRFPSHHACH | < -0.25
95 | GGCACNAPRIQCNVEIHLLM | < -0.25
96 | NIWG | < -0.25

Row | Substance | growth estimate
97 | GKCREG | < -0.25
98 | KANPRIFQLRKDCLQACCCT | < -0.25
99 | VNGFCTMPLIVEPLTLMTKT | < -0.25
100 | NDLVRSPRRAGQCWRRALAT | < -0.25
101 | TGRRATLLGSSRYSVLRVAH | < -0.25
102 | TVTICRATSPGLVKNPLPRV | < -0.25
103 | VPHSTLSRGLGSCLH | < -0.25
104 | CVLRTW | < -0.25
105 | QYREKHNIQAR | < -0.25
106 | TLLRTLGRCRRGHSVTDPPG | < -0.25
107 | LLIAHSVIFILPLSGRNLSM | < -0.25
108 | SDSPRICYVRKTMYPGA | < -0.25
109 | GPTGLRIRNRGVANPRGQQL | < -0.25
110 | RSKDHGSTKGR | < -0.25
111 | MLGSYAWLCACFDLQKRRFQ | < -0.25
112 | HLDFGIFIQARTMITFESGR | < -0.25
113 | RRTIGLGTKVGAGRSWI | < -0.25
114 | YRFTKR | < -0.25
115 | GGCSPVGGRSASTVPFY | < -0.25
116 | SERGYVEVRITYVRPFESS | < -0.25
117 | RGIRSRGEMPSDPGGY | < -0.25
118 | EKSRVL | < -0.25
119 | FNSRDWYGDRGQKCRPSPPA | < -0.25
120 | SETPLHRYRAWYARN | < -0.25

Row | Substance | growth estimate
121 | LGDPNQGL | < -0.25
122 | RFSMWARAGS | < -0.25
123 | EPCMFSRSELNIHPPQISRT | < -0.25
124 | SSWA | < -0.25
125 | YNLASWDVRQS | < -0.25
126 | LIRGQIGFRSR | < -0.25
127 | RAVGNRGRDVPTTALDLTTS | < -0.25
128 | DNTRSVQGIENGRPGSLWLP | < -0.25
129 | PKRLIYPR | < -0.25
130 | ALGTRANLRVASSS | < -0.25
131 | DMCEEATLLGRG | < -0.25
132 | QLEASRDTPGTLPNGPPSGS | < -0.25
133 | KVCSCS | < -0.25
134 | DSRNPIVK | < -0.25
135 | HGWSKKDIFRESVDARRPDA | < -0.25
136 | WSENAVGSHYSQEDATTRTI | < -0.25
137 | SRKLRGFG | < -0.25
138 | PLKRPGVAASGTLYGLNRVS | < -0.25
139 | DPDGAEVCLKLSDESLH | -0.219
140 | GQL | < -0.25
141 | WPANRRTLRHLPVRGRLGQH | < -0.25
142 | RRRWATQKT | < -0.25
143 | GVDGLGFLFLCASRP | < -0.25
144 | GIWPEYSTLVETA | < -0.25

Row | Substance | growth estimate
145 | RAHCTKCDQPGWLWKQITSW | < -0.25
146 | RAHQTVCFRHRPGF | < -0.25
147 | AVKVVALSAFVTECSSSRLQ | < -0.25
148 | QGYCESMGGLRLNDLIPCQA | < -0.25
149 | GYRLDWLVY | < -0.25
150 | FLGSPKDDELLSSGHATDSF | < -0.25
151 | ELHYTMRIGGR | < -0.25
152 | ATAP | < -0.25
153 | NRPPGIDEESSQGGAFVMPS | < -0.25
154 | NRIRNGSYRFLLTHH | < -0.25
155 | GCGNGR | < -0.25
156 | RWDPHGLSEPGRSRD | < -0.25
157 | MVPP | < -0.25
158 | YIQP | < -0.25
159 | VITV | < -0.25
160 | TISGNTVRCKAVTIDKSILC | < -0.25
161 | VCHWSPRR | < -0.25
162 | HVAEQFVMRLSPRGLLLR | < -0.25
163 | LRDFTWLANICQFCYRVHYG | < -0.25
164 | AIR | < -0.25
165 | LGSSLLEAASTTPSNRY | < -0.25
166 | GSNLQSGGLEVVTLRSEVRH | < -0.25
167 | WGVWTFSLCSWQ | < -0.25
168 | HIIWGDEAWGARSAQPEATH | -0.104

Row | Substance | growth estimate
169 | VDRRKRCPRFARYSLGWLAI | < -0.25
170 | VNYEEFYRRPYPSWSTRVCG | < -0.25
171 | GPENSRGWVPCNRS | < -0.25
172 | DRSHQFSWKERAGRVP | < -0.25
173 | VTEHRYV | < -0.25
174 | RSVVLQ | < -0.25
175 | RLLTSPFLGRRPCHGVCLTG | < -0.25
176 | SRHSCRAFQLVDLVKCG | < -0.25
177 | DGRALSTVFRYDVYVSIRRR | < -0.25
178 | NRFHGYHGKGGHRGHTQKCV | < -0.25
179 | VIIRSTSRGRRCSDGPCVTA | < -0.25
180 | LCPV | < -0.25
181 | SGRWRIGR | < -0.25
182 | LELFQAPSEVNDKTEQRIKR | < -0.25
183 | AGVNQSGTN | < -0.25
184 | DQVEGQRGAVEAQDSVSTWV | < -0.25
185 | FPVPRLGIPHYQIG | < -0.25
186 | EIGAHHHGVFRTRLPPSAYA | < -0.25
187 | RGARAKILT | < -0.25
188 | FNEIEHWQYNYPKKS | < -0.25
189 | QRGGVPK | < -0.25
190 | QRSKDRPGQPTTSSVALTFP | < -0.25
191 | TVFLMTHEG | < -0.25
192 | TGVTKLRKE | < -0.25

From entry 178 to 184, copied from above:
Row | Substance | growth estimate
178 | NRFHGYHGKGGHRGHTQKCV | < -0.25
179 | VIIRSTSRGRRCSDGPCVTA | < -0.25
180 | LCPV | < -0.25
181 | SGRWRIGR | < -0.25
182 | LELFQAPSEVNDKTEQRIKR | < -0.25
183 | AGVNQSGTN | < -0.25
184 | DQVEGQRGAVEAQDSVSTWV | < -0.25
